Assay results: patent US20160317391A1, “MEDIA MILLING PROCESS FOR THE MANUFACTURE OF ACTIVE PHARMACEUTICAL INGREDIENTS IN PROPELLANTS” (MERCK SHARP & DOHME CORP., priority 2013, published 2016)

[1] = accelerated conditions of stability

| SMILES | period stable at accelerated conditions of stability (accelerated conditions of humidity (75%) and temperature (40° C.)) | particle growth under accelerated conditions of stability [1] | PSD measurability after exposure beyond 24 h (75% RH and 40° C., significant particle growth) | time within which particles grew on exposure to accelerated conditions [1] [h] |
| --- | --- | --- | --- | --- |
| C[N+]1(C)CCC(OC(=O)C(O)(c2ccccc2)C2CCCC2)C1.[Br-] (stereo not shown) [HFA-LabRAM milled GP, glycopyrrolate bromide] | over 4 weeks | did not exhibit noticeable particle growth for up to a month |  |  |
| C[N+]1(C)CCC(OC(=O)C(O)(c2ccccc2)C2CCCC2)C1.[Br-] (stereo not shown) [jet milled GP, glycopyrrolate bromide] |  |  | immeasurable | ≤ 6 |
